Experimental data taken from the supplement of paper PMC10849652.
The list shows a part of the results.

The chains behind the UniProt entries cited, without tags or fusion partners. Where a name states a change or a piece, a line headed by the entry shows the natural chain unless it says otherwise.
UniProt Q9BSE2: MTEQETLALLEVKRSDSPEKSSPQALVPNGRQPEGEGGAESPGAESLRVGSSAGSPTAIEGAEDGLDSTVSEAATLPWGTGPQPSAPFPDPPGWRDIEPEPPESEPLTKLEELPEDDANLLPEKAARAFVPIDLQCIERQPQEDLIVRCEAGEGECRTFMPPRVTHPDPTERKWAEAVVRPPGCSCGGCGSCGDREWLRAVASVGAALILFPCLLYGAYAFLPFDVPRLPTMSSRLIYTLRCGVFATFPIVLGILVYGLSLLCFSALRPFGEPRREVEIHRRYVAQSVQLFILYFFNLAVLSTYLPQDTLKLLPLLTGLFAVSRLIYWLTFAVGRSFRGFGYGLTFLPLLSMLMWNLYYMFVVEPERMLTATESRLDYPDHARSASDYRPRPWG
UniProt Q96AN5: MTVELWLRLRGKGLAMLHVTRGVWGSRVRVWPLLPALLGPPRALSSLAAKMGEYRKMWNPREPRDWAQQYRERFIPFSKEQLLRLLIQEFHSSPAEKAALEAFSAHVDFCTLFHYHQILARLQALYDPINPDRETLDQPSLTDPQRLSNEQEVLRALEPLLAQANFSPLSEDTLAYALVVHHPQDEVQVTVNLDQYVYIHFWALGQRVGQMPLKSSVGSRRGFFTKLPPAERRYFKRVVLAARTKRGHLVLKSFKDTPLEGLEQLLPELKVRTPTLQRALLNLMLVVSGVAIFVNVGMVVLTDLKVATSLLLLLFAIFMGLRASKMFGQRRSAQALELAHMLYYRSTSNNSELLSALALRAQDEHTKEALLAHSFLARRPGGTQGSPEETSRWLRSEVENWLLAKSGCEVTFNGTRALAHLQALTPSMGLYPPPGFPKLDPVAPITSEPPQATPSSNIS
UniProt Q9NQ34: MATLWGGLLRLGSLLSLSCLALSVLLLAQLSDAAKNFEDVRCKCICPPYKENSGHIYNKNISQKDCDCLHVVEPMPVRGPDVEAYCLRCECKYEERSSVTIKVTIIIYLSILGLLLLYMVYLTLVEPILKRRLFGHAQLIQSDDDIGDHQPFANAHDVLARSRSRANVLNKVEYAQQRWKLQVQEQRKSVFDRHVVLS
UniProt Q96IK0: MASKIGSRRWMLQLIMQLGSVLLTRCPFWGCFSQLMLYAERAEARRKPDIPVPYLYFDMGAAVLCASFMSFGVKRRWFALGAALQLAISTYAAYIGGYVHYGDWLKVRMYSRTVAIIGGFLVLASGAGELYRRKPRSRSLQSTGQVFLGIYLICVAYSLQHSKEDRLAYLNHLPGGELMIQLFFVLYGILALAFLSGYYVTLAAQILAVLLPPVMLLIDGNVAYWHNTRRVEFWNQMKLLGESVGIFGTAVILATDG
UniProt Q9H6X4: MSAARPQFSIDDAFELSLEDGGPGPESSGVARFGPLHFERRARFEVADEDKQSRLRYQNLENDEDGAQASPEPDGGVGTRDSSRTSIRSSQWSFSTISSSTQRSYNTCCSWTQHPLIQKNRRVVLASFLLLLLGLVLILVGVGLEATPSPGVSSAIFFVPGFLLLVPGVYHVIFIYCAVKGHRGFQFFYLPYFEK
UniProt Q8NCS4: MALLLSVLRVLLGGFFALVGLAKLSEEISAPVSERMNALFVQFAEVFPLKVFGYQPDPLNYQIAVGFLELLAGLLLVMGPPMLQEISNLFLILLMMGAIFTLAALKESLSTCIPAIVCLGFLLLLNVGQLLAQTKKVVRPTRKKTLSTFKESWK
UniProt Q7Z403: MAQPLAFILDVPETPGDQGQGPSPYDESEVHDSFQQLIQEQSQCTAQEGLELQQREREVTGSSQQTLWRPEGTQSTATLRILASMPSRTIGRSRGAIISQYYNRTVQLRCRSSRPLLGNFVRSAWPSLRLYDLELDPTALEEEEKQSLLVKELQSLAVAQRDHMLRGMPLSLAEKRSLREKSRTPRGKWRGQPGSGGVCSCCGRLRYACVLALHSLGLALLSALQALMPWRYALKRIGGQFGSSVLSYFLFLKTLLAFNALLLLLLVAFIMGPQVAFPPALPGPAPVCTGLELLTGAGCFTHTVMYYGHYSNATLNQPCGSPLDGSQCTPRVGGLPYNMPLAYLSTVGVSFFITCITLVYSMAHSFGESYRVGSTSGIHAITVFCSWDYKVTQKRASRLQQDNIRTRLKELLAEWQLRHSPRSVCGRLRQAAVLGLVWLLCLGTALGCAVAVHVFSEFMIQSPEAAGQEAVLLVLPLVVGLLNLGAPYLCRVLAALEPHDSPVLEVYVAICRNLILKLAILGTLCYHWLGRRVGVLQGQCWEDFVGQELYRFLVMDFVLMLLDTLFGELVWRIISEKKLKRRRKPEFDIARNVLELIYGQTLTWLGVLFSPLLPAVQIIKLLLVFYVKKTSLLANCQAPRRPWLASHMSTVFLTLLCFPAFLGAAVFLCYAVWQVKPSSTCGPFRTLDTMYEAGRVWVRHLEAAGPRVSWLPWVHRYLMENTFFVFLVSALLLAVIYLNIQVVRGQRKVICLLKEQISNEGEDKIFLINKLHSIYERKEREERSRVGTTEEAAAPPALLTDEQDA
UniProt O75069: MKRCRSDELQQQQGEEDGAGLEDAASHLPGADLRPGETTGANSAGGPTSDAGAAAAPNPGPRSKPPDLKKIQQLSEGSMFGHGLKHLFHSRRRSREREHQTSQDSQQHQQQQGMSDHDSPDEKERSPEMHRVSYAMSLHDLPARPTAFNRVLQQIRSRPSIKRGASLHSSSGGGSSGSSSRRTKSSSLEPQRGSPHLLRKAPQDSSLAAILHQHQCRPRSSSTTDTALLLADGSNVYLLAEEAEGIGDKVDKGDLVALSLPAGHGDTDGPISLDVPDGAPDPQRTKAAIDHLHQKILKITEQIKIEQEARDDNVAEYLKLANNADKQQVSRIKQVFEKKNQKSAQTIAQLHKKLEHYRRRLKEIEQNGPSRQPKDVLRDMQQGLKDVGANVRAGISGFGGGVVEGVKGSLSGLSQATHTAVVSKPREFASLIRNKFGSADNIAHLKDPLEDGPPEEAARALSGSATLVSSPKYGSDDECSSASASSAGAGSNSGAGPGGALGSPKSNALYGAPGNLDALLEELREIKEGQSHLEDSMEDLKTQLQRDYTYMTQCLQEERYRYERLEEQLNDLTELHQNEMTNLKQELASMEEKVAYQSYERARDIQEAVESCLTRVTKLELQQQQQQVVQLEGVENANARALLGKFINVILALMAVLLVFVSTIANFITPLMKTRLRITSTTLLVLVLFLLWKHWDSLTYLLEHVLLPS
UniProt Q5BJD5: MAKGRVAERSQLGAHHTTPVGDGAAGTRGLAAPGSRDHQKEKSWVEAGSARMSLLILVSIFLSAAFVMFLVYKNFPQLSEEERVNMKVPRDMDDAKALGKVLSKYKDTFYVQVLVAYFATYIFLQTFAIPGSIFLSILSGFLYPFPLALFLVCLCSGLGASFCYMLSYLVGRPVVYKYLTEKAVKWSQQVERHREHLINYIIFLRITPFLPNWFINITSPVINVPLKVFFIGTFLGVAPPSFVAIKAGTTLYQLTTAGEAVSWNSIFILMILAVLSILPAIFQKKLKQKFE
UniProt Q7Z7N9: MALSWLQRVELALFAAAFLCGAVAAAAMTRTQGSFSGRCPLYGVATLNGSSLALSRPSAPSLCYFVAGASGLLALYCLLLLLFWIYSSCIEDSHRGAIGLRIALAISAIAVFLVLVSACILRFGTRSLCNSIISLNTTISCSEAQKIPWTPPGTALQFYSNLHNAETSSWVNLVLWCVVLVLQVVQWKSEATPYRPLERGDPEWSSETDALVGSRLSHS
UniProt Q9BRR3: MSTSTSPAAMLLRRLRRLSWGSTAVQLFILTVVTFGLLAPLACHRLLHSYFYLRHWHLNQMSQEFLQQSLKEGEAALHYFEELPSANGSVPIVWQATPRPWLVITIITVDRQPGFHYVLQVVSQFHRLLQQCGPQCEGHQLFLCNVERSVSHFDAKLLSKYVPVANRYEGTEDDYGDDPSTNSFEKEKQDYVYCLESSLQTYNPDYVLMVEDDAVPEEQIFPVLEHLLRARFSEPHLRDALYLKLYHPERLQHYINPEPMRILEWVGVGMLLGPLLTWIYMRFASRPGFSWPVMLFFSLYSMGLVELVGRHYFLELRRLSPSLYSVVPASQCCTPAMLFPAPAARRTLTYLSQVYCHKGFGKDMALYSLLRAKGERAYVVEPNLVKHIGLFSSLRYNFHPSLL
UniProt Q9BXS4: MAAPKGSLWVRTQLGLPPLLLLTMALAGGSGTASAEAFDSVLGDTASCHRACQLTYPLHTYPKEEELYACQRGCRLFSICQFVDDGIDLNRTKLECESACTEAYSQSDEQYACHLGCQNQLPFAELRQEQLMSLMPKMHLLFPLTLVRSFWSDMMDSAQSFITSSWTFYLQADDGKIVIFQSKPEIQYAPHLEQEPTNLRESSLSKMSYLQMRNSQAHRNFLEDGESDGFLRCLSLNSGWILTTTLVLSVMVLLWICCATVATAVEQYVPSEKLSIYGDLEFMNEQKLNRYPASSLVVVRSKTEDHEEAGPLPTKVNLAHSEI
UniProt Q96Q45: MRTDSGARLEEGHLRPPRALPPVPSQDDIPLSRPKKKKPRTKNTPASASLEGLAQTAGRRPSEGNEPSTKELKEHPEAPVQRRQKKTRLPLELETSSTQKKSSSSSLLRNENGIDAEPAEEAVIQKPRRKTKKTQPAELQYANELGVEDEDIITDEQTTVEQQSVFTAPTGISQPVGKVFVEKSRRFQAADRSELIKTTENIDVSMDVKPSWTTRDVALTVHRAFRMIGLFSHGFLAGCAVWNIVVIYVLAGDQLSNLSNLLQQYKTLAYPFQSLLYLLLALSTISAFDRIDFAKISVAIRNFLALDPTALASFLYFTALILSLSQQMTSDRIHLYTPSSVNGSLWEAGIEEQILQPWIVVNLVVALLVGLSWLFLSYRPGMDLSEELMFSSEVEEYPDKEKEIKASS
UniProt Q8NE00: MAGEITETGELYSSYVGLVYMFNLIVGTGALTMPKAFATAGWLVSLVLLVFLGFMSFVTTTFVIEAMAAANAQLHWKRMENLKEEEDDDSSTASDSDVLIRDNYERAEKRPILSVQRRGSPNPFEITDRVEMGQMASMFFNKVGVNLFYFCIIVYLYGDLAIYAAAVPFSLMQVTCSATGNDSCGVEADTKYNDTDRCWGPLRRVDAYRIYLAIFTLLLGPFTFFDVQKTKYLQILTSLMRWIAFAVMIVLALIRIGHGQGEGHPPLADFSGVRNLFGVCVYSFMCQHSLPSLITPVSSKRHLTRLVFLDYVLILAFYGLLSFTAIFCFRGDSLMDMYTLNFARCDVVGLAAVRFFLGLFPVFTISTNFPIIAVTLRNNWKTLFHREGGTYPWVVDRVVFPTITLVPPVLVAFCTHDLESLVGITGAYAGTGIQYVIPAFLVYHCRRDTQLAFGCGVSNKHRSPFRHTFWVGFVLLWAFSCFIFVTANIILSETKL
UniProt A0PK00: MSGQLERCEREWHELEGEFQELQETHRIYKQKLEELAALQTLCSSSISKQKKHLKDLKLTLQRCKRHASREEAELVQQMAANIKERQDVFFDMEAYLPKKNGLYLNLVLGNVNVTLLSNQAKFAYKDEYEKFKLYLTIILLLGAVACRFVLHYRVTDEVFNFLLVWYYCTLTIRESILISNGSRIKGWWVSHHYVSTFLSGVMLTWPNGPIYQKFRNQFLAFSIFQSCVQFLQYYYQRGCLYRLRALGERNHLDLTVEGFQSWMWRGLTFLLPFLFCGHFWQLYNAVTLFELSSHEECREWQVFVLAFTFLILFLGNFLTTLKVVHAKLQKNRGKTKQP
UniProt Q9NX78: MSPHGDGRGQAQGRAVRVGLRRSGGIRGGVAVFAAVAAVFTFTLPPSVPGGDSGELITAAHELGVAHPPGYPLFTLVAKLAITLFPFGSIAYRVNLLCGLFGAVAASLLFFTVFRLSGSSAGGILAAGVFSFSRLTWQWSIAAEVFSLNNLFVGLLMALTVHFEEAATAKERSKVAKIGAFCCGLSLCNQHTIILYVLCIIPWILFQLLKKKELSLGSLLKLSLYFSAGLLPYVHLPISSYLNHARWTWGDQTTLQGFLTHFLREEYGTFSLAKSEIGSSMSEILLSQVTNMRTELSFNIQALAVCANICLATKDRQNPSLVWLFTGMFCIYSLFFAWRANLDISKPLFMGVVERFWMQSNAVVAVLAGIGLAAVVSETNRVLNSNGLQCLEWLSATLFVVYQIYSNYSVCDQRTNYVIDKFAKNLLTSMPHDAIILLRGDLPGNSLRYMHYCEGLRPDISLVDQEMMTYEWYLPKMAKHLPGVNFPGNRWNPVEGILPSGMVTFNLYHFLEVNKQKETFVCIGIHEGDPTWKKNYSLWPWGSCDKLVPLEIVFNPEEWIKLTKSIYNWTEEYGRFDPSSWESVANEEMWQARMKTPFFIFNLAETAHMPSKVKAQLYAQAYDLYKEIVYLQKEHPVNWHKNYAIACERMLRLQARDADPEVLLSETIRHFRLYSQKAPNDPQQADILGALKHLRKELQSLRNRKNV
UniProt Q0VDI3: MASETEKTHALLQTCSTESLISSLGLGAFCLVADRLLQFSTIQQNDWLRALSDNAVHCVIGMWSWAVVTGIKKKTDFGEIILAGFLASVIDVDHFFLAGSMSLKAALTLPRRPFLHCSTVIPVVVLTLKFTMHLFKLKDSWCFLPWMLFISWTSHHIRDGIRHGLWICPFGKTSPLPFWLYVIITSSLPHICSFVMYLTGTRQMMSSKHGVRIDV

Key:
Test in all cases: log2 fold change, soluble protein after heating vs DMSO (PISA); higher = thermal stabilisation; K562 cells, 10 uM, 30 min; active = over 0.2 and 3.5 SD of the protein, either way, in both replicates (recomputed)
Tubastatin A = compound: CN1CCc2c(c3ccccc3n2Cc2ccc(C(=O)NO)cc2)C1 [Tubastatin A]
Summary of the method: (§1)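 K562 cells at 2×10^6 cells/mL were treated for 30 min with 10 μM compound, and aliquots were heated for 3 min over 48°C-58°C before pooling. Extraction used PBS with 0.5% NP-40 at 4°C, and soluble protein was the supernatant after 21,000xg for 90 min, measured by TMTpro 16plex LC-MS/MS with channel sums equalised. Thermal stability values, relative to control samples and from duplicates, are log2 fold changes.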

sotrastaurin = compound: CN1CCN(c2nc(C3=C(c4c[nH]c5ccccc45)C(=O)NC3=O)c3ccccc3n2)CC1 [sotrastaurin]
Summary of the method: as §1

[1] = compound: CNC(=O)C1=CC=CC=C1NC2=NC(=NC=C2Cl)NC3=C(C=C(C=C3)N4CCOCC4)OC
Summary of the method: as §1

saracatinib = compound: CN1CCN(CCOc2cc(OC3CCOCC3)c3c(Nc4c(Cl)ccc5c4OCO5)ncnc3c2)CC1 [saracatinib]
Summary of the method: as §1

[2] = compound: CNc1nc(-c2ccc3c(N)n[nH]c3c2)cc(N2C[C@@H](C(=O)NC3CCCCC3)CC[C@H]2C)n1
Summary of the method: as §1

alvocidib = compound: CN1CC[C@H](c2c(O)cc(O)c3c(=O)cc(-c4ccccc4Cl)oc23)[C@H](O)C1 [alvocidib]
Summary of the method: as §1

rucaparib = compound: CNCc1ccc(-c2[nH]c3cc(F)cc4c3c2CCNC4=O)cc1 [rucaparib]
Summary of the method: as §1

encorafenib = compound: COC(=O)N[C@@H](C)CNc1nccc(-c2cn(C(C)C)nc2-c2cc(Cl)cc(NS(C)(=O)=O)c2F)n1 [encorafenib]
Summary of the method: as §1

defactinib = compound: CNC(=O)c1ccc(Nc2ncc(C(F)(F)F)c(NCc3nccnc3N(C)S(C)(=O)=O)n2)cc1 [defactinib]
Summary of the method: as §1

[3] = compound: COC(=O)[C@H](CCSC)NC(=O)C1=C(C=C(C=C1)NC[C@H](CS)N)C2=CC=CC=C2
Summary of the method: as §1

Measured: log2 fold change

TMEM79 (UniProt Q9BSE2)
inactive: Tubastatin A -0.122

TMEM131 (UniProt Q92545)
inactive: sotrastaurin 0.003 | Tubastatin A -0.02 | [1] 0

TMEM129
inactive: saracatinib -0.039 | Tubastatin A 0.241 | [2] 0.025

TMEM94 isoform 2 (UniProt Q12767)
inactive: saracatinib -0.01 | [1] -0.046 | [2] 0.057

TMEM127 (UniProt O75204)
inactive: alvocidib 0.056 | Tubastatin A -0.015 | [1] 0.038

TMEM143 (UniProt Q96AN5)
inactive: sotrastaurin 0.107 | Tubastatin A 0.067 | [1] -0.021 | rucaparib 0.011 | encorafenib 0.114

TNFAIP3 (UniProt P21580)
inactive: alvocidib -0.027 | [1] -0.154 | defactinib -0.066 | [3] 0.009

TMEM181 (UniProt Q9P2C4)
inactive: saracatinib 0.109 | alvocidib 0.098 | Tubastatin A -0.085 | [1] 0.026 | defactinib -0.017 | rucaparib 0.052 | [2] 0.003 | encorafenib -0.032 | [3] -0.16

TMEM44 (UniProt Q2T9K0)
inactive: [1] -0.086

TNFAIP1 (UniProt Q13829)
inactive: saracatinib -0.139 | alvocidib 0.009 | Tubastatin A -0.011 | [1] -0.061 | defactinib 0.139 | rucaparib 0.015 | [2] -0.272 | encorafenib -0.014 | [3] -0.038

TMEM9B (UniProt Q9NQ34)
inactive: sotrastaurin 0.019 | Tubastatin A -0.033 | [1] -0.029 | defactinib -0.029 | rucaparib -0.02 | encorafenib 0.063 | [3] -0.001

TMEM101 (UniProt Q96IK0)
inactive: saracatinib -0.014 | alvocidib -0.063 | Tubastatin A -0.031 | [1] 0.018 | defactinib -0.054 | rucaparib -0.013 | [2] -0.024 | encorafenib 0.165 | [3] 0.037

TMEM134 (UniProt Q9H6X4)
inactive: [1] -0.021

TMEM35B (UniProt Q8NCS4)
inactive: saracatinib 0.067 | Tubastatin A -0.015 | [1] 0.065 | defactinib -0.191 | [2] 0.115 | [3] -0.188

Pulled one by one from the entries so far (2):
TMEM35B (UniProt Q8NCS4)
inactive: saracatinib 0.067 | Tubastatin A -0.015 | [1] 0.065 | defactinib -0.191 | [2] 0.115 | [3] -0.188

TNFAIP1 (UniProt Q13829)
inactive: saracatinib -0.139 | alvocidib 0.009 | Tubastatin A -0.011 | [1] -0.061 | defactinib 0.139 | rucaparib 0.015 | [2] -0.272 | encorafenib -0.014 | [3] -0.038

Following part:

TMEM273 isoform 2 (UniProt Q5T292)
inactive: Tubastatin A 0.216 | defactinib -0.025 | [3] -0.099

TMEM175 (UniProt Q9BSA9)
inactive: saracatinib -0.095 | Tubastatin A 0.014 | [1] 0.023 | rucaparib 0.039 | [2] -0.098 | encorafenib 0.076

TMC6 (UniProt Q7Z403)
inactive: saracatinib -0.065 | alvocidib -0.057 | Tubastatin A -0.231 | [1] -0.132 | defactinib -0.073 | rucaparib 0.055 | [2] 0.038 | encorafenib 0.207 | [3] -0.035

TMCC2 (UniProt O75069)
inactive: saracatinib 0.004 | alvocidib -0.065 | [2] -0.15

TMEM41B (UniProt Q5BJD5)
inactive: saracatinib 0.051 | alvocidib 0.051 | Tubastatin A -0.085 | [1] 0.138 | defactinib 0 | rucaparib -0.074 | [2] -0.011 | encorafenib 0.071 | [3] 0.022

TMEM179B (UniProt Q7Z7N9)
inactive: sotrastaurin 0.151 | Tubastatin A 0.036 | [1] 0.044 | rucaparib 0.026 | encorafenib -0.015

TMED8 (UniProt Q6PL24)
inactive: saracatinib -0.018 | alvocidib -0.091 | Tubastatin A 0.047 | [1] 0.119 | defactinib -0.043 | rucaparib 0.075 | [2] 0.088 | encorafenib 0.087 | [3] -0.049

TMEM246 (UniProt Q9BRR3)
inactive: [1] 0.108

TMSB4X (UniProt P62328)
inactive: saracatinib 0.18 | alvocidib -0.076 | defactinib 0.024 | rucaparib 0.322 | [2] 0 | encorafenib -0.16 | [3] 0.212

TLNRD1 (UniProt Q9H1K6)
inactive: alvocidib -0.196 | Tubastatin A -0.096

TMEM59 (UniProt Q9BXS4)
inactive: saracatinib -0.469 | alvocidib 0.155 | Tubastatin A 0.183 | [1] 0.175 | [2] -0.227

TMTC4 isoform 3 (UniProt Q5T4D3)
inactive: saracatinib 0.337 | [2] 0.248

TMEM237 isoform 3 (UniProt Q96Q45)
inactive: sotrastaurin -0.085 | Tubastatin A 0.056 | [1] -0.03 | defactinib 0.08 | rucaparib 0.173 | encorafenib 0.026 | [3] -0.217

TMEM104 (UniProt Q8NE00)
inactive: saracatinib -0.024 | [1] -0.007 | rucaparib 0.06 | [2] -0.122 | encorafenib 0.056

TMEM120B (UniProt A0PK00)
inactive: saracatinib 0 | alvocidib -0.119 | Tubastatin A 0.252 | [1] 0.041 | defactinib -0.188 | [2] 0.107 | [3] -0.208

TMCO6 isoform 2 (UniProt Q96DC7)
inactive: saracatinib -0.055 | [1] -0.107 | [2] -0.273

TMEM260 (UniProt Q9NX78)
inactive: saracatinib 0.048 | Tubastatin A 0.056 | [1] 0.022 | [2] -0.16

TMEM267 (UniProt Q0VDI3)
inactive: alvocidib -0.028 | Tubastatin A -0.041 | [1] 0.132 | defactinib -0.004 | rucaparib -0.07 | encorafenib -0.094 | [3] 0.079

TLE5 isoform 2 (UniProt Q08117)
inactive: saracatinib 0.163 | alvocidib 0.06 | defactinib 0.021 | rucaparib 0.009 | [2] -0.025 | encorafenib -0.02 | [3] -0.142

TMEM256 (UniProt Q8N2U0)
inactive: [1] 0.128

TMEM50A (UniProt O95807)
inactive: alvocidib 0.16 | Tubastatin A -0.182 | defactinib -0.106 | [3] 0.05
